PubChem BioAssay AID1671190 (National Center for Advancing Translational Sciences (NCATS), 2021)
About 6,100 (1.1%) of roughly 580,000 compounds were called active. The inconclusive results got no clear call from the source; some entries with a clear call stand among them for comparison. Calls come from the whole dose curve; as a rule, active = well fitted inhibition curve with a large enough effect; inconclusive = small, poorly fitted or top-dose-only effect, or another doubt; inactive = no such curve, though single readings can be large or run the other way. Where the call is inconclusive, the potency comes from a doubtful curve fit.

Chains of the proteins cited; added tags and fusions are not shown. Lines headed by an entry give the natural chain unless they say otherwise; changes in a name come on top.
UniProt P18054: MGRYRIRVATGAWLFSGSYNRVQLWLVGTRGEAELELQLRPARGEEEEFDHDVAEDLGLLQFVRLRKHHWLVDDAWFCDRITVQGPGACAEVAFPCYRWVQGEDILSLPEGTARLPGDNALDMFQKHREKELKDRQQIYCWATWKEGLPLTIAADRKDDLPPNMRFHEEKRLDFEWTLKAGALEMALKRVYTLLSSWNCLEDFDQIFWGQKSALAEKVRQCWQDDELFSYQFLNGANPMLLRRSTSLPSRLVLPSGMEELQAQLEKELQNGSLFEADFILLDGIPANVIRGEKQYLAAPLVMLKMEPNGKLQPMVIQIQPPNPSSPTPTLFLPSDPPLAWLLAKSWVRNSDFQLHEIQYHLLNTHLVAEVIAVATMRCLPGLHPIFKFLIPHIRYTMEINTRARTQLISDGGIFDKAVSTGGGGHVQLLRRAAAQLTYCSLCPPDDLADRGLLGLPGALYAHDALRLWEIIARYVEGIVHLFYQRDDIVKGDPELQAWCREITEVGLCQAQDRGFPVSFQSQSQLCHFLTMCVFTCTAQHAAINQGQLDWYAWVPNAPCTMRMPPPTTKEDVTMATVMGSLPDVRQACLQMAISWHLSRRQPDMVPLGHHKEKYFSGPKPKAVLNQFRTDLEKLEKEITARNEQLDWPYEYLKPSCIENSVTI

biological target: Polyunsaturated fatty acid lipoxygenase ALOX12 (Homo sapiens) (UniProt P18054); assay: Primary qHTS assay for inhibitors of human arachidonate 12S-lipoxygenase (ALOX12): Round 2; details: purified 12hLO, xylenol orange hydroperoxide absorbance; activity change, negative = inhibition: at 108 µM (top of the series) unless noted
Procedure, shortened: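 Purified human 12hLO (150 nM final) in 25 mM Hepes, 0.01% Triton X-100, pH 7.0 was preincubated 15 min at room temperature with compound. Then 40 uM arachidonic acid was added, 30 min. Hydroperoxide was read by Fe-XO absorbance ratio 573/405 nm.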
% is set by controls: 0 for no effect and ±100 for the full control effect; potency is the fitted concentration of half-maximal effect.

| SMILES | Potency | activity change, negative = inhibition |
| --- | --- | --- |
| Cc1ccc2c(CSc3nc4nc(C)cc(C)n4n3)cc(=O)oc2c1 | inconclusive: 56.2 µM [inhibitor, partial curve, poor fit] |  |
| COC(=O)c1ccc(NC(=S)NC2CC3CCC2C3)cc1 (stereo not drawn) | inconclusive: 79.4 µM [inhibitor, partial curve, poor fit] |  |
| Cc1ccc2[nH]c(=O)c(COC(=O)C3CCCO3)cc2c1 (stereo not drawn) | inconclusive: 5.01 µM [inhibitor, full curve, poor fit] |  |
| O=C(CN(Cc1ccccc1F)C(=O)c1csnn1)NC1CCCCC1 | inconclusive: 112 µM [inhibitor, single point] |  |
| O=C(NCc1cccs1)c1csc([C@@H]2O[C@H](CO)[C@H](O)[C@H](O)[C@H]2O)n1 |  | inactive: 9.63% |
| COc1cc(C(=O)N/C(=C/c2ccc(F)cc2)C(=O)NC(C(=O)O)c2ccccc2)cc(OC)c1OC (stereo not drawn) |  | inactive: -20.1% |
| COc1cc(/C=C/C(=O)c2ccc(O)cc2O)ccc1O | inconclusive: 100 µM [inhibitor, partial curve, poor fit] |  |
| O=C(COC(=O)c1cnccn1)Nc1cccc2ccccc12 |  | inactive: -1.25% |
| COc1ccccc1NC(=O)C(C)N(c1ccccc1)S(C)(=O)=O (stereo not drawn) |  | inactive: 6.56% |
| O=C(O)C1Cn2cccc2C(=O)N1Cc1cccnc1 (stereo not drawn) | inconclusive: 25.1 µM [inhibitor, single point] |  |
| COC(=O)/C=C1\N/C(=N\c2nc(C)cc(C)n2)N(c2ccc(Cl)cc2)C1=O | inconclusive: 28.2 µM [inhibitor, partial curve, poor fit] |  |
| Cc1noc(NS(=O)(=O)c2ccc(NC(=O)Nc3ccc(Cl)c(Cl)c3)cc2)c1C | inconclusive: 44.7 µM [inhibitor, partial curve, poor fit] |  |
| COc1ccc2[nH]c(=O)c(CN(C(C)=O)c3ccc(C)cc3C)cc2c1 | inconclusive: 112 µM [inhibitor, single point] |  |
| Cn1nc(C(=O)N2CC[C@H]3C(=O)NCCCCCCN(Cc4ccncc4)[C@@H]3C2)c2ccccc21 |  | inactive: 92.6% |
| CC=Cc1cc(OC)c2c(c1)C(C)C(c1ccc(O)c(OC)c1)O2 (stereo not drawn) | inconclusive: 89.1 µM [inhibitor, single point] |  |
| COc1ccc(F)cc1S(=O)(=O)N1CCC(C(N)=O)CC1 | inconclusive: 28.2 µM [inhibitor, single point] |  |
| Cc1oc(-c2cccs2)nc1CC(=O)Nc1ccc(F)cc1F | inconclusive: 79.4 µM [inhibitor, single point] |  |
| Cc1nnc(N2C(=O)C(O)=C(C(=O)c3ccco3)C2c2cccc([N+](=O)[O-])c2)s1 (stereo not drawn) | inconclusive: 44.7 µM [inhibitor, partial curve, poor fit] |  |
| CCCCCCc1ccc(-c2ncc(N)cn2)cc1 |  | inconclusive: -35% [inhibitor] |
| COc1ccc(CNC(=O)CC[C@@H]2CNC(=O)[C@@H]3C[C@H](NCc4ccc(N(C)C)cc4)CN23)cc1 |  | inactive: -4.56% |
| Nc1ccc2nc(SCC(=O)N3CCOCC3)sc2c1 |  | inactive: 8.12% |

| SMILES | Potency | activity change, negative = inhibition |
| --- | --- | --- |
| COc1ccc(C2C=C(C)Nc3nc(SC)nn32)cc1 (stereo not drawn) | inconclusive: 35.5 µM [inhibitor, partial curve, poor fit] |  |
| COc1ccc(C(=O)N2CCc3c(sc4ncnc(N)c34)C2)cc1OC |  | inactive: -3.47% |
| COc1ccc(S(=O)(=O)NC(CC(=O)NCc2ccco2)C(C)C)cc1 (stereo not drawn) | inconclusive: 0.447 µM [inhibitor, full curve, poor fit] |  |
| N#Cc1cc(F)cc(OCCCN2CCC(C(O)(c3ccccc3)c3ccccc3)CC2)c1 | inconclusive: 35.5 µM [inhibitor, partial curve, poor fit] |  |
| CCN(Cc1ccccc1)C(=O)CC1CCCCN(Cc2ccccc2)C1=O (stereo not drawn) | inconclusive: 22.4 µM [inhibitor, full curve, poor fit] |  |
| CC(C)Oc1ccccc1C1CC(=O)Nc2cc3c(cc21)OCO3 (stereo not drawn) |  | inconclusive: -33.9% [inhibitor] |
| CCCCCCC(O)(c1ccc(OC)cc1)C(CN1CCOCC1)c1ccccc1 (stereo not drawn) | inconclusive: 79.4 µM [inhibitor, single point] |  |
| CCCCc1ccc(NN)c(I)c1 | inconclusive: 6.31 µM [inhibitor, full curve, poor fit] |  |
| COc1ccc(CNCCS(=O)(=O)NC2CCCC2)cc1 | inconclusive: 0.199 µM [inhibitor, full curve, poor fit] |  |
| COc1ccc(-c2csc(/C(C#N)=C\c3ccccc3C(F)(F)F)n2)cc1 |  | inactive: -0.45% |
| Cc1ccc(N2C(=O)N(CC(=O)N3CCc4ccccc43)C(=O)C2C)cc1 (stereo not drawn) | inconclusive: 39.8 µM [inhibitor, partial curve, poor fit] |  |
| COc1ccc(F)cc1-c1ccc(COc2ccc3c(cnn3CCC(=O)O)c2)cc1 | active: 35.5 µM |  |
| O=C(c1ccc(Cl)cc1)N1CC2(CCCN(Cc3ccccn3)C2)Cc2ccccc21 (stereo not drawn) | inconclusive: 39.8 µM [inhibitor, partial curve] |  |
| CCCN(C(=O)Cn1ncc2c([nH]c3ccccc32)c1=O)c1ccc(F)cc1 | inconclusive: 141 µM [inhibitor, partial curve, poor fit] |  |
| Cc1ccc(/C=N/n2c(-c3ccccc3)n[nH]c2=S)cc1 | inconclusive: 14.1 µM [inhibitor, partial curve, poor fit] |  |
| CC(=O)c1cccc(NC(=O)CCCSc2nc(-c3ccco3)cc(C(F)(F)F)n2)c1 | inconclusive: 1.58 µM [inhibitor, full curve, poor fit] |  |
| CCOC(=O)C1CCCN(C(=O)c2ccc3c(c2)N(Cc2ccccc2F)C(=O)c2ccccc2S3=O)C1 (stereo not drawn) |  | inactive: -20.8% |
| Cn1ccnc1C1CCCCN1C(=O)c1cc(COc2ccc(F)cc2Cl)on1 (stereo not drawn) | inconclusive: 56.2 µM [inhibitor, partial curve, poor fit] |  |
| O=C(CCN1C(=O)C2C3CC(C(Br)C3Br)C2C1=O)OCC(=O)c1ccc([N+](=O)[O-])cc1 (stereo not drawn) |  | inactive: 5.19% |
| CCCc1n(CC(O)COCC2CC=CCC2)c2ccccc2[n+]1C (stereo not drawn) | inconclusive: 70.8 µM [inhibitor, partial curve, poor fit] |  |
| CCC(=O)Nc1cc(C(=O)O)ccc1Sc1ccccc1 | inconclusive: 39.8 µM [inhibitor, partial curve, poor fit] |  |

| SMILES | Potency | activity change, negative = inhibition |
| --- | --- | --- |
| CCCCCN(C(=O)CCC(=O)OC(C)C(=O)Nc1ccccc1C)c1c(N)n(CCCC)c(=O)[nH]c1=O (stereo not drawn) | inconclusive: 39.8 µM [inhibitor, partial curve, poor fit] |  |
| C[C@@H]1CN([C@@H](C)CO)C(=O)c2c(c3ccccc3n2C)-c2ccccc2CO[C@H]1CN(C)C(=O)[C@H](C)c1ccccc1 | inconclusive: 35.5 µM [inhibitor, single point] |  |
| OC[C@@H]1CN(Cc2ccco2)C[C@H](n2cnc3c(Nc4ccccc4)ncnc32)O1 | inconclusive: 70.8 µM [inhibitor, partial curve, poor fit] |  |
| S=C(NCc1ccc(Cl)cc1)Nc1cccc(Cl)c1 | inconclusive: 7.94 µM [inhibitor, partial curve, poor fit] |  |
| CC[n+]1ccccc1/C=C/c1ccc(N(C)C)cc1 | inconclusive: 44.7 µM [inhibitor, partial curve, poor fit] |  |
| CCO[C@@H]1OC(C(=O)N2CCCCCCC2)=C[C@H](C2CCCCC2)[C@H]1CCCO |  | inactive: 4.78% |
| C/C(=N/Nc1cc(C(F)(F)F)ccc1Cl)c1ccc(Cl)c(Cl)c1Cl |  | inactive: -7.19% |
| COc1ccc2nc3ccccc3nc2c1N |  | inconclusive: -38.9% [inhibitor] |
| Cc1cc(=O)oc2cc(OC(=O)CCCOc3ccccc3)ccc12 | inconclusive: 56.2 µM [inhibitor, partial curve, poor fit] |  |
| Cc1sc2nc(C(C)Sc3nnnn3C)[nH]c(=O)c2c1C (stereo not drawn) | inconclusive: 35.5 µM [inhibitor, partial curve] |  |
| CN1CCN(c2ccc(NC(=O)c3ccc4c(c3)OCCO4)cc2)CC1 |  | inactive: -7.68% |
| C[C@@H]1[C@H]2CCCC[C@H]2CN(C(=O)OC(C)(C)C)[C@@H]1c1cn(Cc2ccccc2)c2ccc(F)cc12 |  | inactive: 1.83% |
| C=CCNC(=O)N[C@H]1[C@H](O)[C@@H](N2CCN(C)CC2)[C@@H]2OC[C@H]1O2 | inconclusive: 22.4 µM [inhibitor, partial curve, poor fit] |  |
| CN(c1cccc(F)c1)c1cc2c(c3c1ccn3C)C1CCC2O1 (stereo not drawn) | inconclusive: 44.7 µM [inhibitor, partial curve, poor fit] |  |
| O=S(=O)(c1cccc(-c2n[nH]c(=S)n2Cc2ccccc2)c1)N1CCOCC1 | inconclusive: 50.1 µM [inhibitor, partial curve, poor fit] |  |
| C#CCN(C[C@@H]1[C@@H](OC(=O)NC2CC2)[C@@H](OC(=O)NC2CC2)Cn2c(=O)n(CCCCCC)c(=O)n21)S(=O)(=O)c1ccc(C)cc1 | inconclusive: 44.7 µM [inhibitor, partial curve, poor fit] |  |
| O=C(Nc1ccc(F)cc1F)NC1CCN(Cc2c(F)cccc2Cl)CC1 |  | inactive: 53.3% |
| Cc1ccc(C)n1NC(=O)c1ccccc1O | inconclusive: 15.8 µM [inhibitor, partial curve, poor fit] |  |
| CN(C)CCN(C(=O)c1ccc(C(=O)c2ccccc2)cc1)c1nc2cc3c(cc2s1)OCO3 | inconclusive: 39.8 µM [inhibitor, partial curve, poor fit] |  |
| O=C(C1CC1)N1CCc2sccc2C1c1ccc(Cl)cc1 (stereo not drawn) | inconclusive: 100 µM [inhibitor, partial curve, poor fit] |  |
| CCOC(=O)C1(Cc2ccccc2C)CCCN(Cc2cc(OC)c(O)c(OC)c2)C1 (stereo not drawn) | inconclusive: 44.7 µM [inhibitor, partial curve, poor fit] |  |

Another view of part of the listing above:
SMILES	Potency	activity change, negative = inhibition
CC[n+]1ccccc1/C=C/c1ccc(N(C)C)cc1	inconclusive: 44.7 µM [inhibitor, partial curve, poor fit]	
CCO[C@@H]1OC(C(=O)N2CCCCCCC2)=C[C@H](C2CCCCC2)[C@H]1CCCO		inactive: 4.78%
C/C(=N/Nc1cc(C(F)(F)F)ccc1Cl)c1ccc(Cl)c(Cl)c1Cl		inactive: -7.19%
COc1ccc2nc3ccccc3nc2c1N		inconclusive: -38.9% [inhibitor]
Cc1cc(=O)oc2cc(OC(=O)CCCOc3ccccc3)ccc12	inconclusive: 56.2 µM [inhibitor, partial curve, poor fit]	
Cc1sc2nc(C(C)Sc3nnnn3C)[nH]c(=O)c2c1C (stereo not drawn)	inconclusive: 35.5 µM [inhibitor, partial curve]	
CN1CCN(c2ccc(NC(=O)c3ccc4c(c3)OCCO4)cc2)CC1		inactive: -7.68%
C[C@@H]1[C@H]2CCCC[C@H]2CN(C(=O)OC(C)(C)C)[C@@H]1c1cn(Cc2ccccc2)c2ccc(F)cc12		inactive: 1.83%
C=CCNC(=O)N[C@H]1[C@H](O)[C@@H](N2CCN(C)CC2)[C@@H]2OC[C@H]1O2	inconclusive: 22.4 µM [inhibitor, partial curve, poor fit]	
CN(c1cccc(F)c1)c1cc2c(c3c1ccn3C)C1CCC2O1 (stereo not drawn)	inconclusive: 44.7 µM [inhibitor, partial curve, poor fit]	
O=S(=O)(c1cccc(-c2n[nH]c(=S)n2Cc2ccccc2)c1)N1CCOCC1	inconclusive: 50.1 µM [inhibitor, partial curve, poor fit]	

Looked up above.
Potency with O=C(C1CC1)N1CCc2sccc2C1c1ccc(Cl)cc1 (stereo not drawn) is entered as inconclusive: 100 µM [inhibitor, partial curve, poor fit]
Potency with C#CCN(C[C@@H]1[C@@H](OC(=O)NC2CC2)[C@@H](OC(=O)NC2CC2)Cn2c(=O)n(CCCCCC)c(=O)n21)S(=O)(=O)c1ccc(C)cc1 is entered as inconclusive: 44.7 µM [inhibitor, partial curve, poor fit]
